# Source: PMC7905166
# Results are given in words; binding and its absence hold for the method and conditions named. Binding seen in cells or lysates may run through a third protein. Some results given as binding are weak or reduced against the parent protein; the word gives no strength.
# Experiments:
# [1] = molecular target: epidermal growth factor receptor (EGFR) (human (endogenous in human GBM cell lines)) (UniProt P00533); assay: co-IP; endogenous proteins; cells lysed in RIPA buffer with protease inhibitors, lysate precleared with protein A/G beads, primary antibody (anti-SH3KBP1 or anti-EGFR) overnight at 4°C, protein A/G beads 2 h, washed four times with ice cold PBS, immunoblot
# [2] = molecular target: SH3-domain kinase binding protein 1 (SH3KBP1) (human (endogenous in human GBM cell lines)) (UniProt Q96B97); assay: as above
Substance,binding [1],binding [2]
SH3-domain kinase binding protein 1 (SH3KBP1) (from UniProt Q96B97 1-665),binds,
epidermal growth factor receptor (EGFR) (from UniProt P00533 25-1210),,binds
